Protein sequences, listed by entry. Tags and fused reporters are not part of them. Lines headed by an entry give the natural chain unless they say otherwise; changes in a name come on top.
UniProt Q9UNA4: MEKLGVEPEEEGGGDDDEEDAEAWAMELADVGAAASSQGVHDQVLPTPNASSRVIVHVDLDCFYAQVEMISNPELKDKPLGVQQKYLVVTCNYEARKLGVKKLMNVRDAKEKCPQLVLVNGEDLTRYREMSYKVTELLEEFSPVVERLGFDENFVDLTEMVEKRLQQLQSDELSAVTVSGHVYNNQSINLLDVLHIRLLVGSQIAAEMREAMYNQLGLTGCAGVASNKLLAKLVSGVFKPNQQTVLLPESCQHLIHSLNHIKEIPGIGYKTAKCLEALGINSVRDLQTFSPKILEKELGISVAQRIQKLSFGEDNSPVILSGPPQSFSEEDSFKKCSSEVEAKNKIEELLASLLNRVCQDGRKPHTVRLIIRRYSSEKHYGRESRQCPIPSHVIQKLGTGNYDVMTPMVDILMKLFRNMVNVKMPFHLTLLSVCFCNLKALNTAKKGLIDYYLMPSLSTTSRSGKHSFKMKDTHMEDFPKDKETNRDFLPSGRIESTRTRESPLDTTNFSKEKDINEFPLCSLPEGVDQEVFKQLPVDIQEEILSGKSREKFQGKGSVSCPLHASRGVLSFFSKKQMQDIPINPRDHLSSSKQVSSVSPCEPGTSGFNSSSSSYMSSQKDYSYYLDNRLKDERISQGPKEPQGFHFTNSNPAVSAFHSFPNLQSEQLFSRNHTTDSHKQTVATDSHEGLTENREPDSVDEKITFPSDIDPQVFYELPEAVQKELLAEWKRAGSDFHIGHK

Screen size: about 390,000 compounds; about 4,000 (1%) were called active. Inconclusive means that the source gave no clear call. Such entries were picked first, then a sample of the others. Calls come from the whole dose curve; as a rule, active = well fitted inhibition curve with a large enough effect; inconclusive = small, poorly fitted or top-dose-only effect, or another doubt; inactive = no such curve, though single readings can be large or run the other way. Potencies of inconclusive entries are doubtful fits and often do not repeat.
Each compound was assayed against DNA polymerase iota (Homo sapiens) (UniProt Q9UNA4) (assay: qHTS for Inhibitors of Polymerase Iota). Details: Pol iota fluorescent replication assay, 10 min; series mostly up to 115 µM; activity, negative = inhibition: at the top concentration.
How it was run: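 Pol iota at 10 nM preincubated 15 min with compounds at room temperature; reaction started with fluorescent substrate, 50 nM final. Fluorescence read kinetically at 0 and 10 min; buffer-only wells as negative control.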
In the case of `COc1ccc(-c2cn(-c3ccccc3)nc2C(=O)O)cc1OC`, the Potency is reported as inconclusive: 39.8 µM [inhibitor, single point]. In the case of `O=C(Nc1ncc([N+](=O)[O-])s1)c1ccc2c(c1)OCO2`, the Potency is reported as inconclusive: 31.6 µM [inhibitor, partial curve]. With `CC1(c2ccccc2)CC(C)(C)N(C(=O)c2cccc(Cl)c2)c2ccccc21` (stereo not drawn) the Potency was inconclusive: 89.1 µM [inhibitor, single point]. For `O=C(COC(=O)c1ccc([N+](=O)[O-])cc1Cl)NCc1ccco1`, the “activity, negative = inhibition” value was inactive: -19.4%. `Cc1ccc(-c2cc(C(=O)NCc3cccnc3)no2)cc1` was tested, and the Potency was inconclusive: 70.8 µM [inhibitor, partial curve]. With `CCOc1ccc(NC(=O)c2ccc(F)cc2F)cc1` the Potency was inconclusive: 22.4 µM [inhibitor, full curve, poor fit]. For `CCCc1cc(N2CCOCC2)n2nc(C)c(-c3ccccc3)c2n1`, the Potency was inconclusive: 56.2 µM [inhibitor, partial curve, poor fit]. With `COc1ccccc1C(=O)COC(=O)c1cc([N+](=O)[O-])ccc1N1CCOCC1` the “activity, negative = inhibition” value was inactive: 4.3%. In the case of `COc1cc(NC(=O)c2n[nH]c(=O)c3ccccc23)cc(OC)c1`, the Potency is reported as inconclusive: 1.26 µM [inhibitor, full curve, poor fit]. For `CCOC(=O)C1(CC/C(C)=N\NC(N)=O)CC(C)OC1=O` (stereo not drawn), the Potency was inconclusive: 89.1 µM [inhibitor, single point]. With `COc1ccc(-n2cc(-c3ccccc3)c3c(Nc4ccc(OC)c(OC)c4)ncnc32)cc1` the Potency was inconclusive: 89.1 µM [inhibitor, partial curve, poor fit]. In the case of `COc1cc(OC)c(NC(=O)Nc2cccc(OCc3cc(=O)n4ccccc4n3)c2)cc1Cl`, the Potency is reported as inconclusive: 100 µM [inhibitor, single point]. In the case of `Cc1sc2nc(SCC(=O)Nc3ccc(S(N)(=O)=O)cc3)[nH]c(=O)c2c1C`, the Potency is reported as inconclusive: 20 µM [inhibitor, full curve, poor fit]. For `Cc1ccc(CN2CC(=O)N3[C@H]4c5cc(C)ccc5OC[C@@H]4[C@H](c4ccccc4)[C@]3(C)C2=O)cc1`, the Potency was inconclusive: 39.8 µM [inhibitor, single point]. `Cc1ccc(-c2cc(C(=O)N3CCOCC3)c3ccccc3n2)o1` was tested, and the Potency was active: 79.4 µM. In the case of `CCOC(=O)c1c(C)[nH]c(CCC(=O)NC(C)c2ccccc2)c1C` (stereo not drawn), the “activity, negative = inhibition” value is reported as inactive: 25.3%. In the case of `O=C(C1CCCN(S(=O)(=O)c2ccc(Br)s2)C1)N1CCN(c2ccccc2F)CC1` (stereo not drawn), the “activity, negative = inhibition” value is reported as inactive: 25.6%. With `COc1c(O)c(=O)n2c3ccccc3c3ccnc1c32` the Potency was inconclusive: 39.8 µM [inhibitor, partial curve, poor fit].

Source: PubChem BioAssay AID588590 (National Center for Advancing Translational Sciences (NCATS), 2011)
Potency is the fitted concentration of half-maximal effect.
